In publication doi:10.1101/235101 one finds binding data, which are given here for one substance.

The chains behind the UniProt entries cited, without tags or fusion partners. Where a name states a change or a piece, a line headed by the entry shows the natural chain unless it says otherwise.
UniProt Q80V94: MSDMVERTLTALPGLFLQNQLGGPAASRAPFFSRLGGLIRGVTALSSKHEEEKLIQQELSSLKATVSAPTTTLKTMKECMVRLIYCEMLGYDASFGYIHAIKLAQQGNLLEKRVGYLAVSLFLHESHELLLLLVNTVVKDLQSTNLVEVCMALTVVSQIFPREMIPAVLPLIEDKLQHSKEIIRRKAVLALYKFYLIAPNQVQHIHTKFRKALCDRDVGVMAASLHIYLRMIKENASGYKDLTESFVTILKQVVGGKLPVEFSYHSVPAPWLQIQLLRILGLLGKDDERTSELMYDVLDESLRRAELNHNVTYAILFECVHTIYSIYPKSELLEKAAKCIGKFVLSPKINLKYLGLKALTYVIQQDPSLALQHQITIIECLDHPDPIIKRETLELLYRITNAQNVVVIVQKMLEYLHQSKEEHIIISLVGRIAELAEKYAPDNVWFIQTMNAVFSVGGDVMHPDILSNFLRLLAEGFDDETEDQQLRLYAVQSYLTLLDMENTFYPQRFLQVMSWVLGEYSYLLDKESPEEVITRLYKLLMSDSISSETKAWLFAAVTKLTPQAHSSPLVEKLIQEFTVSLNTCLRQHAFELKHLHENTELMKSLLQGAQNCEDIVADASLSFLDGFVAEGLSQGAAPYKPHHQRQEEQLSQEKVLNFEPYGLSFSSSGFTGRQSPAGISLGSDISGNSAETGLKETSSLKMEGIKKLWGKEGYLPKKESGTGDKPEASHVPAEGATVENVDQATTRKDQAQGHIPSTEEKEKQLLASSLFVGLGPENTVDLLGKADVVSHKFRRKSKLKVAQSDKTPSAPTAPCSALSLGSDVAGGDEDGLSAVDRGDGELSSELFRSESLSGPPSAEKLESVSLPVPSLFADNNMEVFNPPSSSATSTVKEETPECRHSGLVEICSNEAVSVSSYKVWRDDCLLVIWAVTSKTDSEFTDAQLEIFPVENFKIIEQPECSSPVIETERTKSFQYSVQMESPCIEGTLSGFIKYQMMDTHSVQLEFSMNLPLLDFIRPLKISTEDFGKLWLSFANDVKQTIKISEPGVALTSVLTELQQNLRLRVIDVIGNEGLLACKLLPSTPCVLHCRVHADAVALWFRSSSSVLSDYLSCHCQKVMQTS

The target of this test is T1, ATG9A (mouse (endogenous in mouse brain)) (UniProt Q68FE2).
T1 sequence: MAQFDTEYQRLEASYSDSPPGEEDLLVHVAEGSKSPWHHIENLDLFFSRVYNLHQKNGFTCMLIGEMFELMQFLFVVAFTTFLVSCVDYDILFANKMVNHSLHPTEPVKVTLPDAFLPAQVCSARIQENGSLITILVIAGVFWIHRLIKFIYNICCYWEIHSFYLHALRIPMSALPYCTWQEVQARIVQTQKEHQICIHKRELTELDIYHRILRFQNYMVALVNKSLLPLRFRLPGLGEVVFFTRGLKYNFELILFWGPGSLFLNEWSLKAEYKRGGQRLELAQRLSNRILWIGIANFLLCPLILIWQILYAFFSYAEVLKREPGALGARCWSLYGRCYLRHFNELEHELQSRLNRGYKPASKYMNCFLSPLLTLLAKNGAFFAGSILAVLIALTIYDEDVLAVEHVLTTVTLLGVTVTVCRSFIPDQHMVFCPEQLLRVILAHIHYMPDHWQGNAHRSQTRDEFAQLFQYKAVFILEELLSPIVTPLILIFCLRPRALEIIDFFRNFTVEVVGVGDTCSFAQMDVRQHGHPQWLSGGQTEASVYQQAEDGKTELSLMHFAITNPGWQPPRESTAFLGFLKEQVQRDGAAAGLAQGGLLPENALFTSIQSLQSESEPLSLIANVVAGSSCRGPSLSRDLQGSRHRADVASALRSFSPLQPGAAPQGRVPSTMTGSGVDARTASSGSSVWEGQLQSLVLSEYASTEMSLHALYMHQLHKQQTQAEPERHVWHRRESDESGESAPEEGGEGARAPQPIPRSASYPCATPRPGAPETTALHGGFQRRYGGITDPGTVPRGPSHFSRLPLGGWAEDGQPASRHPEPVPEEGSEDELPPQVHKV
Nature of the test: co-IP.

These are yes or no findings as the source states them, for the method shown. In cells and extracts the contact can be indirect. Some entries that bind do so weakly or less than the wild type.

For “AP-4 complex (from UniProt Q80V94 1-1122; Q9WV76 1-738; Q9JKC7 1-449; Q9WVL1 1-144)”, the binding result is on record as “binds”.
